Results are given in words; binding and its absence hold for the method and conditions named. Some entries that bind do so weakly or less than the wild type. Sequences can lack the tags named with a protein.
T1: recombinant His-tagged flotillin 1 (UniProt O75955-1 1-427)
T1 construct: flotillin 1; the discussion speaks of bacterially expressed proteins; also called FL1
T1 sequence (looked up): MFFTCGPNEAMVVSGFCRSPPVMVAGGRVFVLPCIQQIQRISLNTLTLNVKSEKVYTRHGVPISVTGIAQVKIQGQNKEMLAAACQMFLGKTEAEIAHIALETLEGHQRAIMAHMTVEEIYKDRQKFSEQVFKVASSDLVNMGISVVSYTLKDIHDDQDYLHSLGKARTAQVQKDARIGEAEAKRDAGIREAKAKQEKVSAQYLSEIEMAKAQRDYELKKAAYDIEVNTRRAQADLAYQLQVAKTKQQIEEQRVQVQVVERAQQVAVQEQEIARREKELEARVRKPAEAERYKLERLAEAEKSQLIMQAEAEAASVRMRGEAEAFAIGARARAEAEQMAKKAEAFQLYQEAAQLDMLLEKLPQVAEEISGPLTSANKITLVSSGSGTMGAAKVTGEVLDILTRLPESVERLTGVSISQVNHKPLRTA

T2: recombinant His-tagged flotillin 2 (UniProt Q14254 1-428)
T2 construct: flotillin 2; also called FL2
T2 sequence (looked up): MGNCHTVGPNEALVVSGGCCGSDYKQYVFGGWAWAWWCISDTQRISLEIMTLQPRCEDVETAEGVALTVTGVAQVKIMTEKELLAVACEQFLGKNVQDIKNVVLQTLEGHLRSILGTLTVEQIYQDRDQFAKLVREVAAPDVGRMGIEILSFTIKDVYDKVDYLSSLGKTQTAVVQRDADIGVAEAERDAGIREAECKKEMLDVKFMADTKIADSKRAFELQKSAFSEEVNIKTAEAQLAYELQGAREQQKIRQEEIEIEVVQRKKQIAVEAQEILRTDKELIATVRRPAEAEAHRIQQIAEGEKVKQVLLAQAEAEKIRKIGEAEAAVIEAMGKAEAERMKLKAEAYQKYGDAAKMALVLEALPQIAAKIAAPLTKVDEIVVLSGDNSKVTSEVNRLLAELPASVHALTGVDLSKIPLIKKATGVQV


Tests used:
[1] = target: T1, recombinant His-tagged flotillin 1; assay: ELISA; competitive ELISA with bacterially expressed recombinant proteins; MPP1-Mut4 against the full-length MPP1-flotillin 1 interaction, compared to MPP1-Mut1 (Fig. S6); both purified
[2] = target: T1, recombinant His-tagged flotillin 1; assay: SPR; His-tagged flotillin 1 or 2 captured on a Ni-NTA sensor chip (about 4000 RU), BIAcore T200; untagged MPP1 or its truncated mutants as analytes (at least five concentrations, 50-2000 nM), association 360 s, dissociation 600 s; HBS-T; global fit, 1:1 Langmuir model with mass transport step; both purified
[3] = target: T2, recombinant His-tagged flotillin 2; assay: as above

binding [1]	binding [2]	binding [3]	Binder
binds			full length recombinant MPP1 (protein, UniProt Q00013 1-466) MTLKASEGESGGSMHTALSDLYLEHLLQKRSRPEAVSHPLNTVTEDMYTNGSPAPGSPAQVKGQEVRKVRLIQFEKVTEEPMGITLKLNEKQSCTVARILHGGMIHRQGSLHVGDEILEINGTNVTNHSVDQLQKAMKETKGMISLKVIPNQQSRLPALQMFMRAQFDYDPKKDNLIPCKEAGLKFATGDIIQIINKDDSNWWQGRVEGSSKESAGLIPSPELQEWRVASMAQSAPSEAPSCSPFGKKKKYKDKYLAKHSSIFDQLDVVSYEEVVRLPAFKRKTLVLIGASGVGRSHIKNALLSQNPEKFVYPVPYTTRPPRKSEEDGKEYHFISTEEMTRNISANEFLEFGSYQGNMFGTKFETVHQIHKQNKIAILDIEPQTLKIVRTAELSPFIVFIAPTDQGTQTEALQQLQKDSEAIRSQYAHYFDLSLVNNGVDETLKKLQEAFDQACSSPQWVPVSWVY
	no binding (tested: 1600 nM)	no binding (tested: 1600 nM)	MPP1-Mut5 (residues 272–466) (domain or fragment, UniProt Q00013 272-466) EEVVRLPAFKRKTLVLIGASGVGRSHIKNALLSQNPEKFVYPVPYTTRPPRKSEEDGKEYHFISTEEMTRNISANEFLEFGSYQGNMFGTKFETVHQIHKQNKIAILDIEPQTLKIVRTAELSPFIVFIAPTDQGTQTEALQQLQKDSEAIRSQYAHYFDLSLVNNGVDETLKKLQEAFDQACSSPQWVPVSWVY
	no binding (tested: 1600 nM)	no binding (tested: 1600 nM)	MPP1-Mut1 (residues 63–230) (domain or fragment, UniProt Q00013 63-230) GQEVRKVRLIQFEKVTEEPMGITLKLNEKQSCTVARILHGGMIHRQGSLHVGDEILEINGTNVTNHSVDQLQKAMKETKGMISLKVIPNQQSRLPALQMFMRAQFDYDPKKDNLIPCKEAGLKFATGDIIQIINKDDSNWWQGRVEGSSKESAGLIPSPELQEWRVAS

From publication PMC8292550, “Molecular characterization of direct interactions between MPP1 and flotillins” (Scientific Reports, 2021)
